Here are results for 19 molecules from publication PMC10163288.

B1: il10ra_site1_sap_12_mot_HHH_b1_00682_000000235_0001_1_20_H_._HHH_b1_06101_0001_0000200013_0000001_0_0001 (protein)
chain: SSSSDELRRAAHLSLRAFRLALRGNPEEAREVLEEALRLAEEAGDERLARIIERILRALKSSSSS
B2: il10ra_site1_normal_mot_8756ee2cf497b5429c717dfc0c0bcfd6_0001_000000186_0001_1_13_H_._HHH_b1_03712_af2_0001_0000400016_0000001_0 (protein)
chain: SSSSNELERVYELIRLLAELLRRGDEEEFEEVSEEVKKLVEELNNDVLRAVVEYLQRHLESSSSS
B3: il10ra_site1_normal_mot_HHH_b2_04275_000000272_0001_20_36_H_._HHH_b1_08149_0001_0000100012_0000001_1 (protein)
chain: SSSSTEESERVYELLRRLSEADHDGDEELFEELLEEVRELAEKIGSPLLRFQVEFLERIFHSSSS
B4: il10ra_site1_sap_16_mot_HHH_b1_05088_af2_000000046_0001_20_36_H_._HHH_b2_07571_af2_0001_0000300015_0000001_0_0001 (protein)
chain: SSSSSAQEEARELLEEAEELLRQGNPEEAMRLLQEASAFALRASDEELLQEIWELVRRLASSSSS
B5: il10ra_site1_normal_mot_HHH_b2_02337_000000026_0001_38_52_H_._HHH_b2_02232_0001_0000200025_0000001_0 (protein)
chain: SSSSDVEEEVERLIEEAKELLEEGDPRRAAEVLAEAVQFALESGDEELLRQIWELVQKIANSSSS
B6: il10ra_site1_normal_mot_HHH_b1_01886_000000262_0001_1_18_H_._HHH_b1_08614_0001_0000300029_0000002_0 (protein)
chain: SSSSSTLEWSVEFVKRVAEELAELGNPEQAQELLKKLLEHLRQAGNPELLEELEELLEELSSSSS
B7: il10ra_site1_sap_28_mot_HHH_b1_05937_af2_000000262_0001_20_37_H_._HHH_b1_07210_0001_0000200025_0000001_0_0001 (protein)
chain: SSSSDYEEKVERLLEELRELLEEGDQEKFNELILEVLRLIIRNKNAELLRELWEIVEKWGKSSSS
B8: il10ra_site1_normal_mot_HHH_b2_01205_000000166_0001_1_19_H_._HHH_b1_02342_0001_0000100007_0000001_0 (protein)
chain: SSSSDETREIYELLQEAFELLEEGDPEEARKVLEEAVELAEEAGNFSFLFSARLALRDLNSSSSS
B9: il10ra_site1_sap_21_mot_HHH_b1_00666_000000226_0001_43_56_H_._HHH_b2_06995_0001_0000100005_0000002_0_0001_af2pred_dldesign_0_af2pred (protein)
chain: SSSSNPEVEAEAERLYEELKKLLKEGKKDEVQKKFQELVELANENENLKAAQLANELLKLLSSSS
B10: il10ra_site1_normal_mot_HHH_b2_03220_af2_000000223_0001_23_40_H_._HHH_b1_05693_0001_0000100002_0000001_0 (protein)
chain: SSSSDLEEIWELARRALELRANGNPEEAEKVLEEAIRLAEELGSRVLVFNLELLLRTLERASSSS
B11: il10ra_site1_normal_mot_HHH_b2_00033_000000036_0001_41_54_H_._HHH_b1_07799_af2_0001_0000300010_0000002_0 (protein)
chain: SSSSDEEAQELFQEVWELIKRGDREELEKLLKEIEELEKEDPRLRDTLRMAVFAARQFLNSSSSS
B12: il10ra_site1_sap_19_mot_83efa5f199d74a44323d7a465a177682_0001_af2_000000100_0001_37_51_H_._HEEHE_2120_0001_0000700018_0000001_0_0001 (protein)
chain: SSSSSDEEELRELLEEIERLLEEGDHEEALRLIIEVIRLAFQLRDEEALQLAWELAKELESSSSS
B13: il10ra_site1_normal_mot_HHH_b2_06255_000000043_0001_1_20_H_._HHH_b2_06965_0001_0000500054_0000001_0 (protein)
chain: SSSSSDELFEEVREAIERANELFKKDDEEARELLEEALEKVEEAGNLLLLFSLRHAIRANSSSSS
B14: il10ra_site1_normal_mot_HHH_b2_03220_af2_000000223_0001_23_40_H_._HHH_b1_06765_0001_0000300020_0000001_0 (protein)
chain: SSSSSLEEVWELIREALEALANGDPERAEELLEEARRLAEENNSPLFEFAVRHLLKDVEESSSSS
B15: il10ra_site1_normal_mot_HHH_b2_02537_000000065_0001_1_20_H_._HHH_b2_02684_0001_0000200023_0000004_0 (protein)
chain: SSSSTDEEFRETREVIERASELFLNGNPEEAEELLEELLKKLEEEGNEALFFAAEHLLRLLSSSS
B16: il10ra_site1_normal_mot_HHH_b1_04704_af2_000000076_0001_43_57_H_._HHH_b2_04324_0001_0000100005_0000001_0_af2pred_0001 (protein)
chain: SSSSDEEVKRVKELLEKALKLARRGNPEEAERLLEEAREIAEEAGNLQLRLQVEFVARLLSSSSS
B17: il10ra_site1_sap_19_mot_a2bf7c1b5df5f4a6a28f683756f784c8_0001_1_000000075_0001_17_32_H_._HEEHE_1797_0001_0000700006_0000001_0_0001 (protein)
chain: SSSSSEEDERILELSKEAFRLLLRGNPEEAQKVLEEALRLAEEAGDERALKMLEDLLKIARSSSS
B18: il10ra_site1_sap_10_mot_HHH_b2_01447_af2_000000258_0001_1_20_H_._HHH_b2_06336_0001_0000200027_0000002_0_0001 (protein)
chain: SSSDSDEVYKLIKEAMELLREGDPEEVEELLERIRELIEKAGNFVLRYNLEILERLLEELRSSSS
B19: il10ra_site1_sap_27_mot_HHH_b1_01513_af2_000000021_0001_1_16_H_._HHH_b2_07447_af2_0001_0000200004_0000001_0_0001_af2pred_0001 (protein)
chain: SSSSSSAEEVFEQVARLLEEALRISDEEEVEELLKEAKEIAEEGNNELLKVQIRFAKERHSSSSS

The list shows a part of the results.

In the test the target is il10ra, Q13651. Briefly: yeast display titration.
Take B1: the “apparent Kd” value is “inactive: no binding seen”.
In the case of B2, the “apparent Kd” value is “inactive: no binding seen”.
Consider B3, for which the “apparent Kd” value was “inactive: no binding seen”.
As for B4, the “apparent Kd” value was “inactive: no binding seen”.
In the case of B5 it was “inactive: no binding seen”; in that of B6, “inactive: no binding seen”; in that of B7, “inactive: no binding seen”.
As to B8, the “apparent Kd” value is “inactive: no binding seen”.
As for B9, the “apparent Kd” value was “inactive: no binding seen”.
For the molecule B10, the “apparent Kd” value is “inactive: no binding seen”.
As to B11, the “apparent Kd” value was “inactive: no binding seen”.
For the molecule B12, the “apparent Kd” value was “inactive: no binding seen”.
For B13, the “apparent Kd” value is “inactive: no binding seen”.
As to B14, the “apparent Kd” value is “inactive: no binding seen”.
For B15, the “apparent Kd” value was “inactive: no binding seen”.
As for B16, the “apparent Kd” value is “inactive: no binding seen”.
For B17, the “apparent Kd” value was “inactive: no binding seen”.
Regarding B18, the “apparent Kd” value was “inactive: no binding seen”.
Turning to B19, the “apparent Kd” value was “inactive: no binding seen”.
